{
  "source": "paper PMC4161973",
  "key": {"[1]": {"molecular_target": "T1, GST-Pse1 (S. cerevisiae) (UniProt P32337)", "T1 sequence": "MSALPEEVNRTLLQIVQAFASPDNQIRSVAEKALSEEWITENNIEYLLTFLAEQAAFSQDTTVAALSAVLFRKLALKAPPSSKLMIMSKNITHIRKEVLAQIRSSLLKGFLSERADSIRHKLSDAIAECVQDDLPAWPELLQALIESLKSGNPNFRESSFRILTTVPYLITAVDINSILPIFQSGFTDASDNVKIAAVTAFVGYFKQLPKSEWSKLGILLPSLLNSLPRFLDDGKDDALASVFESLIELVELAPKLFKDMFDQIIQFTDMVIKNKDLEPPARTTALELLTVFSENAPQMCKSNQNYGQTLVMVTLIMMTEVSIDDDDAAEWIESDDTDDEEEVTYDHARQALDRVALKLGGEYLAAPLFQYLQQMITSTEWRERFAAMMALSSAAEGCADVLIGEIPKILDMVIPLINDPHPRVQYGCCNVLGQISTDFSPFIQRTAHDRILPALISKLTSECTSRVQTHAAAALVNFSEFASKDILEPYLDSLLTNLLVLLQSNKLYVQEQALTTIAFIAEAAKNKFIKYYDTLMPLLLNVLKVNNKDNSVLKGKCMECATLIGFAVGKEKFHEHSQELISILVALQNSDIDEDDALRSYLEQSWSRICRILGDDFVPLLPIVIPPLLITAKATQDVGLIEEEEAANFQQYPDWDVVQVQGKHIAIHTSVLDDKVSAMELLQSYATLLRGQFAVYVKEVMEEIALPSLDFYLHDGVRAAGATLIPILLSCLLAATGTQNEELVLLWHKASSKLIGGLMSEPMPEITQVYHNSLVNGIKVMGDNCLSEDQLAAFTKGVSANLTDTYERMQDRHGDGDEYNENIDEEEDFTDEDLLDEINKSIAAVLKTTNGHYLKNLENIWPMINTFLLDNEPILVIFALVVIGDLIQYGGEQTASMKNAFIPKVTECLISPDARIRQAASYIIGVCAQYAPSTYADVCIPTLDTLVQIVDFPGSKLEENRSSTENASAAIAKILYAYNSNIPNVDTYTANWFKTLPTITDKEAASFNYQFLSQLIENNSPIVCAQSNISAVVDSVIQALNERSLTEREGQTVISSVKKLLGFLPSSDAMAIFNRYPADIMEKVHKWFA", "assay": "pull-down; GST-importins immobilised on Glutathione Sepharose, incubated with purified 3.4 µM Tsr2 or 4 µM Tsr2:eS26 in PBSKMT with competing E. coli lysates for 1 hr at 4°C; Coomassie Blue staining or Western; both purified"}, "[2]": {"molecular_target": "T2, GST-tagged Sxm1 (S. cerevisiae) (UniProt Q04175)", "T2 sequence": "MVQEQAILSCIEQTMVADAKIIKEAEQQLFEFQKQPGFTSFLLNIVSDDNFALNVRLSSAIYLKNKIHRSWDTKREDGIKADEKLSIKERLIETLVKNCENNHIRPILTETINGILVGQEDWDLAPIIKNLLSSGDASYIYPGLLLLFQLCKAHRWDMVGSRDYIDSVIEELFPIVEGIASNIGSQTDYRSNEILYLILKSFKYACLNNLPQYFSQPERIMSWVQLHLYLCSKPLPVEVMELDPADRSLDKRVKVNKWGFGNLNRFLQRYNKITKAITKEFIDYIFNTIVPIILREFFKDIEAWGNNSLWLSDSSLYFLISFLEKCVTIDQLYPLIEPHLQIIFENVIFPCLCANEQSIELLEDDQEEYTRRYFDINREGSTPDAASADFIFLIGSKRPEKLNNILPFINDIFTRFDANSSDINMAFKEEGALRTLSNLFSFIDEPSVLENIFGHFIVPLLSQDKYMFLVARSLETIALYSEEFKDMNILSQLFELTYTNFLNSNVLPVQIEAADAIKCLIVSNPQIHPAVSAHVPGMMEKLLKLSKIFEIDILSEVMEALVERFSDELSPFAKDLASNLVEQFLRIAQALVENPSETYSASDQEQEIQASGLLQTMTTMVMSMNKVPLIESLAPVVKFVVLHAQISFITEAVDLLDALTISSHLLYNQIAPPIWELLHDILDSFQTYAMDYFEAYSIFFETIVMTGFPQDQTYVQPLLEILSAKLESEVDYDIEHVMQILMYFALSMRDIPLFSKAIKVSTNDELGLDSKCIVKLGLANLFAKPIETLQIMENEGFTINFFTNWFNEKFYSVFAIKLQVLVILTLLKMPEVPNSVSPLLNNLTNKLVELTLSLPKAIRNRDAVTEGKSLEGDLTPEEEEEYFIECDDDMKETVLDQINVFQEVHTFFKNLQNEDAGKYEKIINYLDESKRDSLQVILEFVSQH", "assay": "pull-down; GST-importins immobilised on Glutathione Sepharose, incubated with purified 3.4 µM Tsr2 or 4 µM Tsr2:eS26 in PBSKMT with competing E. coli lysates for 1 hr at 4°C; Coomassie Blue staining or Western; both purified"}},
  "note": "No constants are given. Whether binding was seen depends on the method and setting. Binding seen in cells or lysates may run through a third protein. Tags and fused reporters may be left off the sequences shown.",
  "data": [
    {"substance": "Tsr2:eS26 complex (S. cerevisiae)", "values": [
      {"measurement": "binding", "setting": "[1]", "value": "no binding (tested: 4 µM Tsr2:eS26)"},
      {"measurement": "binding", "setting": "[2]", "value": "no binding (tested: 4 µM Tsr2:eS26)"}
    ]}
  ]
}
